# From the supplement of paper PMC11732987, “Enantioselective OTUD7B fragment discovery through chemoproteomics screening and high-throughput optimisation” (Communications Chemistry, 2025)
# Amino acid sequences for entries named in this document (tags omitted). A change or cut given only in a name is not applied to a line headed by its entry. Residues count along the entry.
# UniProt P17181, 502-526: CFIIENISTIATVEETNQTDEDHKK
# UniProt Q9HBG6: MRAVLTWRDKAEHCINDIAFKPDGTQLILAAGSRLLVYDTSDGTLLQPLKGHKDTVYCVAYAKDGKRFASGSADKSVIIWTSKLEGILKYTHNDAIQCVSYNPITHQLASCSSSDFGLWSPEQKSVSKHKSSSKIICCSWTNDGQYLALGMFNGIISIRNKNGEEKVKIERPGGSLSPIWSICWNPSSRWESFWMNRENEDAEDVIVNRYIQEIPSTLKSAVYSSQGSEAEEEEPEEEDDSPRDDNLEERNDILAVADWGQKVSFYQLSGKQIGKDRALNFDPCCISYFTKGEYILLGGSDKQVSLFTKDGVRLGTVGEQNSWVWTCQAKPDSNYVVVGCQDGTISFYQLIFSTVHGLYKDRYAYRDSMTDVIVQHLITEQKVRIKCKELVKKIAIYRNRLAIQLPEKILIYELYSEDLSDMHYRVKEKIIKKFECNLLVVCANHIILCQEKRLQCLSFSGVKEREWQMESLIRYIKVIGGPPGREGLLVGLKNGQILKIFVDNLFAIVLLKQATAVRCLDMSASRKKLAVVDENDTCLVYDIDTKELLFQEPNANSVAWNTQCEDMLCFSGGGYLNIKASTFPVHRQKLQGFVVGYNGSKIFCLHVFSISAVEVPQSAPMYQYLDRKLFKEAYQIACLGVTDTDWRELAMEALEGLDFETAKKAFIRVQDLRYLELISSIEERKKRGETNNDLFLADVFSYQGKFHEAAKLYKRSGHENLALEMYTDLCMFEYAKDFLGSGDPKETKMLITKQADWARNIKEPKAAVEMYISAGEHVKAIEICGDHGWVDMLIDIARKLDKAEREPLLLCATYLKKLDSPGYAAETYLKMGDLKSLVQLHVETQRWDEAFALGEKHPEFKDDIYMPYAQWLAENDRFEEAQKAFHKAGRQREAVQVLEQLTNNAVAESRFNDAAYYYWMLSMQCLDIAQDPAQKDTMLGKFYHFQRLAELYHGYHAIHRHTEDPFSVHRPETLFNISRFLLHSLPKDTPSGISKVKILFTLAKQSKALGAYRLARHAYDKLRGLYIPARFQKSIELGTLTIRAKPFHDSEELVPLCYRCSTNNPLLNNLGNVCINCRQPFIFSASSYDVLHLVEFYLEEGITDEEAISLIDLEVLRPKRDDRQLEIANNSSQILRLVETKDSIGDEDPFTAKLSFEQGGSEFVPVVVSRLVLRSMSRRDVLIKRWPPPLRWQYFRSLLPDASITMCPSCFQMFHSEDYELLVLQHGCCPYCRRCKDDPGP
# UniProt Q8N201: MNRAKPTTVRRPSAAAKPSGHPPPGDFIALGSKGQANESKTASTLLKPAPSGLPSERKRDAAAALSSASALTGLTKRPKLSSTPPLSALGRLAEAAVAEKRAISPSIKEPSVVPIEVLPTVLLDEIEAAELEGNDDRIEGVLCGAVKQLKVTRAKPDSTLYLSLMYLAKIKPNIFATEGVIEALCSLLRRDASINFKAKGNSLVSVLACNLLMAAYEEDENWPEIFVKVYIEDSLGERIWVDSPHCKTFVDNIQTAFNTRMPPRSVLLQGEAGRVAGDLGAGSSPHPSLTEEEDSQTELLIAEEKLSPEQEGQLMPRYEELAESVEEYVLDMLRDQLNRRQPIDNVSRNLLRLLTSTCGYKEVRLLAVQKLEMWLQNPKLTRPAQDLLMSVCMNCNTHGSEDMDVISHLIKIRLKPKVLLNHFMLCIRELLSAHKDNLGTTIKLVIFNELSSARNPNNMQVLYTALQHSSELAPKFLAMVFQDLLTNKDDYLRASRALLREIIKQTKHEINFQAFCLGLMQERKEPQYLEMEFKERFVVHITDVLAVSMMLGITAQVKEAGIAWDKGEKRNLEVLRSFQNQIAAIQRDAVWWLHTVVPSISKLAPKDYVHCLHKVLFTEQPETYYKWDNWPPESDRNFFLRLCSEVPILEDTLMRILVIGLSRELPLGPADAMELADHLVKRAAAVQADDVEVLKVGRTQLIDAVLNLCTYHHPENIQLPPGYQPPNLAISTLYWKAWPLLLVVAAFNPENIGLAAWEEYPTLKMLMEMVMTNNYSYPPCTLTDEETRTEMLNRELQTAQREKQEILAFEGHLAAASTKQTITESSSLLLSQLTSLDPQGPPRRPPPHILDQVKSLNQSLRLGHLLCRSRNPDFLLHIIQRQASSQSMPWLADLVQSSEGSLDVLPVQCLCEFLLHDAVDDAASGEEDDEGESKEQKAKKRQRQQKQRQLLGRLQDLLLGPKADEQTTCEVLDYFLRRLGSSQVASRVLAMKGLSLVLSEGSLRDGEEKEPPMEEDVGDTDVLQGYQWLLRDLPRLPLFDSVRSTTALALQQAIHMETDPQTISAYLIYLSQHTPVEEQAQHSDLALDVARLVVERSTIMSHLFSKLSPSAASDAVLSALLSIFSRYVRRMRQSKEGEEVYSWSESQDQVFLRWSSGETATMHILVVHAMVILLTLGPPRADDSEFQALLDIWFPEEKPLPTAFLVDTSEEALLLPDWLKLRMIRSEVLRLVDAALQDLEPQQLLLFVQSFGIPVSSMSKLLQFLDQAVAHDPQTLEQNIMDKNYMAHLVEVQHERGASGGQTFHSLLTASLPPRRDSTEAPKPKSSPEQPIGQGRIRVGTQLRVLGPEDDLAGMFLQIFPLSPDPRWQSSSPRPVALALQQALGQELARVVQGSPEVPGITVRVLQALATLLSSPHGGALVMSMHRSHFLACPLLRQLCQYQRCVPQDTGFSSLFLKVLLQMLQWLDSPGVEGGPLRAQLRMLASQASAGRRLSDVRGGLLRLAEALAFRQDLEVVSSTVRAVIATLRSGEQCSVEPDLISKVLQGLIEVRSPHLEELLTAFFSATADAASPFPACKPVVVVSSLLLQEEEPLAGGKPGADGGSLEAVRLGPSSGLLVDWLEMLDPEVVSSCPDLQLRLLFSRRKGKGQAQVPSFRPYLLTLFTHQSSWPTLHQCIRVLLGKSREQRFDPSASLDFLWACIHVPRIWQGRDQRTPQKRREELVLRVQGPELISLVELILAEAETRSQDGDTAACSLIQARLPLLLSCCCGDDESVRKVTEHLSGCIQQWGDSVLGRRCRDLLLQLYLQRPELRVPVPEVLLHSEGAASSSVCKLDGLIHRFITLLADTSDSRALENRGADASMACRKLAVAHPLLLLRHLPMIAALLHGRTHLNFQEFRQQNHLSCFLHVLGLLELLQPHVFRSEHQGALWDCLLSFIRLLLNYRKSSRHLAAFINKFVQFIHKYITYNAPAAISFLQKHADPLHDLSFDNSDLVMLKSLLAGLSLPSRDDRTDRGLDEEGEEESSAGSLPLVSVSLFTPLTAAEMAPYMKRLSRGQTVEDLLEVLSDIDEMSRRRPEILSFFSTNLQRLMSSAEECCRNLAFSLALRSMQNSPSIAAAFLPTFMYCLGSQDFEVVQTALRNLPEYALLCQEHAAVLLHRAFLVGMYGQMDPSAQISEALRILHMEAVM
# UniProt Q9UL03, whole entry, looked up: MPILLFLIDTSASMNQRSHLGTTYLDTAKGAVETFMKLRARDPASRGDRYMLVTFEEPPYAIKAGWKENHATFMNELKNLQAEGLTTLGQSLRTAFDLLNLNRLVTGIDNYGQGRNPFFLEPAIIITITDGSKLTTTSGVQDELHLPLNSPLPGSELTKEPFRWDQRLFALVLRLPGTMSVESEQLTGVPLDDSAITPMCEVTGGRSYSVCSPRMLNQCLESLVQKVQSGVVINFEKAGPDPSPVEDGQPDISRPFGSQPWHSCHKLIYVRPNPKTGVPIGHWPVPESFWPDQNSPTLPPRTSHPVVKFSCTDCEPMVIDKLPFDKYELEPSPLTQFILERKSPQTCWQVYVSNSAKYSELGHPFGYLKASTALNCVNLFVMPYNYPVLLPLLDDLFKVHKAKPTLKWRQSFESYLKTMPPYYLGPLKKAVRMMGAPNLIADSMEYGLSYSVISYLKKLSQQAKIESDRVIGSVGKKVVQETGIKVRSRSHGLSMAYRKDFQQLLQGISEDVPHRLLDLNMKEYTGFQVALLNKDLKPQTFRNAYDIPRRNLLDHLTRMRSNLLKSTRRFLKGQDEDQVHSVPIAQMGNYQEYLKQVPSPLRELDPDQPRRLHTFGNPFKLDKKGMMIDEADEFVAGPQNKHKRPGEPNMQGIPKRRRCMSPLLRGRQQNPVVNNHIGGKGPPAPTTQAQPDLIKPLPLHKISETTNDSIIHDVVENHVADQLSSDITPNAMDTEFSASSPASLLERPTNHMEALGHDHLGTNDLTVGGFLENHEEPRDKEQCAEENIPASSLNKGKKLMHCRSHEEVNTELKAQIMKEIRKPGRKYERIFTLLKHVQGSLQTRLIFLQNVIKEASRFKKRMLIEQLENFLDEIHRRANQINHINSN
# UniProt Q13325, 69-92: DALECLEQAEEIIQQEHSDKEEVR
# UniProt Q9NVH2, whole entry, looked up: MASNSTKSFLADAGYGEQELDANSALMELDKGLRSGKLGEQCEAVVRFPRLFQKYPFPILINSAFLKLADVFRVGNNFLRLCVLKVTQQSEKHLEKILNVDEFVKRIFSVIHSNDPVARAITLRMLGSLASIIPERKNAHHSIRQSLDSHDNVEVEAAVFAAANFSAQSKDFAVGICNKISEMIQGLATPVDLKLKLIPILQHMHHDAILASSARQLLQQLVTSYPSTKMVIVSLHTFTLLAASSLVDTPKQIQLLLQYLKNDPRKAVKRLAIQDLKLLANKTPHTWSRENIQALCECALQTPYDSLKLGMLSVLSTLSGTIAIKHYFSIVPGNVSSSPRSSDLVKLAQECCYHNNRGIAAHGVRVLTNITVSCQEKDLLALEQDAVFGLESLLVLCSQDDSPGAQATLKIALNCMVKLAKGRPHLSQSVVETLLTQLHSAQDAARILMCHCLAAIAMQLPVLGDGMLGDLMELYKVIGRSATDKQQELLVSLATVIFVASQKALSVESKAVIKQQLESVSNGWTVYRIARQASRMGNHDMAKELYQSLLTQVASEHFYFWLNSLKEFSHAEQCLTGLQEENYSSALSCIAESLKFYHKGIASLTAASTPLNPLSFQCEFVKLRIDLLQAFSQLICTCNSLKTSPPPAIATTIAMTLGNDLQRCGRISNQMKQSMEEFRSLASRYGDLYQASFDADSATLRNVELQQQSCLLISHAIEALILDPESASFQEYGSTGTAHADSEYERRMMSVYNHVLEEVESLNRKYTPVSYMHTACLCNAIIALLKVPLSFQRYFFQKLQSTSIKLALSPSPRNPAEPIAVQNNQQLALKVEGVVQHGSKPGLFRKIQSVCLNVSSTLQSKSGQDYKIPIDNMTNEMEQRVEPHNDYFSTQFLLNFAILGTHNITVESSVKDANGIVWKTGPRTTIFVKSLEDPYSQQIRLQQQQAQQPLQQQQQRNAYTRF
# This is one part of the list. The data scatter; read single values as rough.
# Experiments:
# [1] = compound: ClCC(=O)N[C@@H]1CCCc2ccccc12; assay: log2 mean competition ratio of IA-DTB cysteine labelling (DMSO/compound) (log2 ratio); higher = stronger cysteine engagement by compound; details: treatment time: 4 h, cell line lysate: HEK293T
# Description: (§1)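 IA-DTB competitive cysteine chemoproteomics in HEK293T RIPA lysate. Lysates were treated with compound 29 or 30 at 50 or 200 µM for 4 h, then IA-DTB (500 µM, 1 h), trypsin-digested, NeutrAvidin-enriched and analysed by diaPASEF. Competition ratio = intensity DMSO / intensity compound (n=4 treated, n=64 DMSO); binding: mean log2 CR ≥ 1 and p ≤ 0.05 plus QC filters. Target is the cysteine site.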
# [2] = compound: ClCC(=O)N[C@H]1CCCc2ccccc12; assay: as above; details: treatment time: 4 h, cell line lysate: HEK293T
# Description: as §1
Target,log2 mean competition ratio ([1]; 50 µM),log2 mean competition ratio ([1]; 200 µM),log2 mean competition ratio ([2]; 50 µM),log2 mean competition ratio ([2]; 200 µM)
IPO9 C864 (UniProt Q96P70),0.32,-0.0605,0.892,0.0188
HSPA4L C270 (UniProt O95757),-0.117,-0.034,0.115,0.0948
IQGAP3 C646 (UniProt Q86VI3),0.418,-0.0521,0.14,-0.0673
HROB C209,-0.083,0.157,0.326,0.345
IRF2BP1 C207 (UniProt Q8IU81),0.378,0.0917,0.557,0.284
INF2 C332 (UniProt Q27J81),-0.105,-0.143,-0.0156,-0.331
INF2 C650 (UniProt Q27J81),0.143,0.126,-0.771,-0.00705
IRAK1 C608 (UniProt P51617),0.488,0.374,0.134,0.274
IFRD2 C147 (UniProt Q12894),0.225,0.468,-0.344,0.19
ICE1 C265 (UniProt Q9Y2F5),-0.0921,0.071,-0.0105,-0.118
IFNAR1 C502 (UniProt P17181),-0.093,0.0824,0.196,-0.404
IFT122 C519 (UniProt Q9HBG6),0.0389,-0.00314,-0.308,0.0929
IL17RA C185 (UniProt Q96F46),-0.1,-0.0633,0.205,0.14
HSPA4 C417 (UniProt P34932),-0.239,-0.139,0.0225,0.0278
HUWE1 C1567,0.00799,-0.26,-0.386,-0.314
INTS1 C1755 (UniProt Q8N201),-0.206,0.0815,0.233,0.121
HTT C2013 (UniProt P42858),0.0879,0.164,0.105,0.102
IFI35 C107 (UniProt P80217),0.2,0.0662,0.0481,-0.00981
HSDL1 C328 (UniProt Q3SXM5),0.151,-0.0867,0.138,0.393
INTS6 C211 (UniProt Q9UL03),-0.0255,0.0245,0.144,0.324
IARS2 C1002 (UniProt Q9NSE4),-0.0345,-0.0286,-0.203,-9.14e-05
IFIT5 C73 (UniProt Q13325),-0.415,-0.0838,-0.264,-0.534
HOXD11 C225,-0.16,-0.106,-0.183,0.0713
INTS7 C177 (UniProt Q9NVH2),-0.0781,-0.167,0.321,-0.0571

# Another view of part of the listing above:
Target | log2 mean competition ratio ([1]; 50 µM) | log2 mean competition ratio ([1]; 200 µM) | log2 mean competition ratio ([2]; 50 µM) | log2 mean competition ratio ([2]; 200 µM)
HROB C209 | -0.083 | 0.157 | 0.326 | 0.345
HUWE1 C1567 | 0.00799 | -0.26 | -0.386 | -0.314
